# Reference: patent US20250319063A1, “METHODS AND COMPOUNDS FOR RESTORING MUTANT P53 FUNCTION” (PMV PHARMACEUTICALS, INC., priority 2022, published 2025)
# For part of these data: At least one read-out could not be matched to a standard name with certainty. For part of these data: At least one compound was matched to its structure with a doubt left.
# Assays:
# [1] = system: circulating tumor cells; test: Circulating tumor cell (CTC) enumeration (IHC assay); format: in vivo, human; settings: Phase 1 patients
# [2] = Single oral dose plasma pharmacokinetics in fasted and fed healthy subjects (food effect, ethnicity); format: in vivo, human
# Description: Compound 1 pharmacokinetics were analyzed in healthy subjects administered Compound 1 in a fasted state. A subject was considered fasted if the subject fasted overnight for at least 10 hours and water was permitted ad libitum except for 1 hour before and after drug administration. For fasted subjects, Compound 1 was administered with at least 8 ounces (240 mL) of water. Compound 1 pharmacokinetics were also analyzed in healthy subjects administered Compound 1 in a fed state. A subject was considered fed after consuming a high-fat meal 30 minutes prior to drug administration, and the meal was finished at least 5 minutes prior to drug administration. For both fasted and fed subjects, no food was permitted for at least 4 hours post-dose and water was permitted starting at 1 hour post-dose.
# Subjects were healthy, non-smoking male and female Caucasian/non-Asian or Japanese participants 18 to 55 years of age with a BMI between […].
# In Part 1 of the study, analysis was performed to compare 1000 mg Compound 1 in fed and fasted states. A dose of 1000 mg of Compound 1 consisted of two 500 mg tablets administered as a single oral dose. The analysis of Part 1 was performed at two separate time points in two different schemes (1A and 1B).
# In scheme 1A, at period 1, Compound 1 analyzed in healthy subjects administered 1000 mg Compound 1 (n=3) in a fed state. Following a washout period of 7-9 days, these subjects were then administered 1000 mg Compound 1 in a fasted state.
# Separately, in scheme 1B, at period 1, Compound 1 was analyzed in healthy subjects administered 1000 mg Compound 1 (n=3) in a fasted state. Following a washout period of 7-9 days, these subjects were then administered 1000 mg Compound 1 in a fed state.
# In Part 2 of the study, analysis was performed to compare 2000 mg Compound 1 in fed and fasted states and also to compared ethnicity of Caucasian/non-Asian subjects and Japanese subjects. A dose of 2000 mg of Compound 1 consisted of four 500 mg tablets administered as a single oral dose.
# For Caucasian/non-Asian subjects (n=20) the analysis was performed at two separate time points in two different schemes (2A and 2B). During scheme 2A, at period 1, Compound 1 was analyzed in subjects administered 2000 mg Compound 1 (n=10) in a fed state. Following a washout period of 7-9 days, at period 2, these subjects were then administered 2000 mg Compound 1 in a fasted state. Separately in scheme 2B, at period 1, Compound 1 was analyzed in subjects administered 2000 mg Compound 1 (n=10) in a fasted state. Following a washout period of 7-9 days, at period 2, these subjects were then administered 2000 mg Compound 1 in a fed state.
# For Japanese subjects (n=6), Compound 1 pharmacokinetics were analyzed in subjects administered 2000 mg Compound 1 in a fasted state.
# Blood for the analysis of study drug (Compound 1) and metabolite (M1) were collected.
# Various pharmacokinetic (PK) parameters were determined for each subject. (Tables 9-12 and FIGS. 23-28).
# Statistical analysis of Compound 1 plasma PK parameters were evaluated for food effects for Part 1 (Table 11) and Part 2 (Table 12). The log-transformed PK parameters were analyzed using an analysis of variance model with treatment (fed/fasted condition) and period as fixed effects and participant as a random effect.
smiles,measurement,setting,value
"CNC(=O)c1ccc(NCC#Cc2cc3c(N[C@@H]4CCN(C)C[C@@H]4F)cccc3n2CC(F)(F)F)c(OC)c1 [Compound 1, 4-((3-(4-(((3S,4R)-3-fluoro-1-methylpiperidin-4-yl)amino)-1-(2,2,2-trifluoroethyl)-1H-indol-2-yl)prop-2-yn-1-yl)amino)-3-methoxy-N-methylbenzamide]",CTC data,[1],supported early and sustained activity
same,"Vz/F, Minimum, Maximum","[2]; 1000 mg oral, Fasted (Part 1)","107, 199"
same,"Vz/F, Minimum, Maximum","[2]; 1000 mg oral, Fed (Part 1)","99.6, 164"
same,"Vz/F, Minimum, Maximum","[2]; 2000 mg oral, Fasted, Caucasian/Non-Asian","117, 382"
same,"Vz/F, Minimum, Maximum","[2]; 2000 mg oral, Fasted, Japanese","93.8, 251"
same,"Vz/F, Minimum, Maximum","[2]; 2000 mg oral, Fed, Caucasian/Non-Asian","86.8, 216"
